PubChem BioAssay AID1259425, University of Nebraska Medical Center, 2018
Purpose: 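Find knockdowns that reproduce the gene expression pattern seen when KSR1 is lost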 (primary screen). System: HCT116 human colon cancer cells. Knock-down reagent: siRNA pool against human genes, 50 nM siRNA. Read-out: 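mRNA of six signature genes measured together by branched-DNA assay after 50 nM siRNA pool, blank removed, divided by geometric mean of two housekeeping genes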. Scale: BNIP3L mRNA: higher = more BNIP3L transcript after knockdown; NDRG1 mRNA: higher = more NDRG1 transcript after knockdown; BNIP3 mRNA: higher = more BNIP3 transcript after knockdown; ALDOC mRNA: higher = more ALDOC transcript after knockdown.
Shown is a random part of about 14,000 deposited reagents. The numbers tell different reagents against one gene apart. Not all columns of the deposit are shown. Not given: the time to read-out.

gene symbol | reagent no. | BNIP3L mRNA, set 1 | NDRG1 mRNA, set 1 | BNIP3 mRNA, set 1 | ALDOC mRNA, set 1
SPIN1 (spindlin 1) | 1 | 0.383 | 0.231 | 0.519 | 0.0417
SENP3 (SUMO specific peptidase 3) | 1 | 0.36 | 0.83 | 0.855 | 0.0698
FCGR1A (Fc gamma receptor Ia) | 1 | 0.147 | 0.204 | 0.309 | 0.0635
NPR3 (natriuretic peptide receptor 3) | 1 | 0.273 | 0.448 | 0.422 | 0.0671
NPR3 (natriuretic peptide receptor 3) | 2 | 0.168 | 0.136 | 0.433 | 0.0305
DCAF8 (DDB1 and CUL4 associated factor 8) | 1 | 0.141 | 0.532 | 0.244 | 0.0129
GTF2H3 (general transcription factor IIH subunit 3) | 1 | 0.0697 | 0.176 | 0.253 | 0.033
RPP30 (ribonuclease P/MRP subunit p30) | 1 | 0.135 | 0.158 | 0.271 | 0.0359
SULT4A1 (sulfotransferase family 4A member 1) | 1 | 0.111 | 0.221 | 0.408 | 0.0215
TNFRSF12A (TNF receptor superfamily member 12A) | 1 | 0.102 | 0.407 | 0.271 | 0.065
PCDHAC2 (protocadherin alpha subfamily C, 2) | 1 | 0.108 | 0.213 | 0.295 | 0.0167
EFL1 (elongation factor like GTPase 1) | 1 | 0.151 | 0.2 | 0.45 | 0.0643
POLDIP3 (DNA polymerase delta interacting protein 3) | 1 | 0.148 | 0.235 | 0.252 | 0.0695
FXR2 (FMR1 autosomal homolog 2) | 1 | 0.0955 | 0.545 | 0.266 | 0.00301
FKBP10 (FKBP prolyl isomerase 10) | 1 | 0.167 | 0.531 | 0.461 | 0.0687
ZBTB26 (zinc finger and BTB domain containing 26) | 1 | 0.0333 | 0.0707 | 0.277 | 0.011
NPPC (natriuretic peptide C) | 1 | 0.056 | 0.147 | 0.291 | 0.0253
RUVBL2 (RuvB like AAA ATPase 2) | 1 | 0.113 | 0.285 | 0.232 | 0.0517
DCLRE1C (DNA cross-link repair 1C) | 1 | 0.195 | 0.13 | 0.352 | 0.02
SLC49A4 | 1 | 0.0914 | 0.367 | 0.316 | 0.04
CRK (CRK proto-oncogene, adaptor protein) | 1 | 0.0909 | 0.235 | 0.472 | 0.00947
BRSK2 (BR serine/threonine kinase 2) | 1 | 0.164 | 0.081 | 0.328 | 0.0101
DPP10 (dipeptidyl peptidase like 10) | 1 | 0.105 | 0.151 | 0.293 | 0.0292
ARGLU1 (arginine and glutamate rich 1) | 1 | 0.0741 | 0.275 | 0.182 | 0.0506
HSFY1 (heat shock transcription factor Y-linked 1) | 1 | 0.0355 | 0.0527 | 0.343 | 0.00475
ENC1 (ectodermal-neural cortex 1) | 1 | 0.216 | 0.076 | 0.36 | 0.0157
TNFRSF6B (TNF receptor superfamily member 6b) | 1 | 0.279 | 0.23 | 0.269 | 0.0387
NUBPL (NUBP iron-sulfur cluster assembly factor, mitochondrial) | 1 | 0.151 | 0.194 | 0.363 | 0.0356
TMEM59 (transmembrane protein 59) | 1 | 0.0843 | 0.206 | 0.328 | 0.017
GRM6 (glutamate metabotropic receptor 6) | 1 | 0.154 | 0.222 | 0.493 | 0.0838
SLC11A2 | 1 | 0.0931 | 0.22 | 0.256 | 0.0258
WDR83 (WD repeat domain 83) | 1 | 0.177 | 0.328 | 0.397 | 0.0653
CGB5 (chorionic gonadotropin subunit beta 5) | 1 | 0.118 | 0.188 | 0.21 | 0.0246
ATP6V1C1 (ATPase H+ transporting V1 subunit C1) | 1 | 0.128 | 0.159 | 0.337 | 0.0411
HLA-DQA2 (major histocompatibility complex, class II, DQ alpha 2) | 1 | 0.219 | 0.193 | 0.297 | 0.0179
ADGRF4 (adhesion G protein-coupled receptor F4) | 1 | 0.142 | 0.237 | 0.271 | 0.0549
TM9SF3 (transmembrane 9 superfamily member 3) | 1 | 0.125 | 0.144 | 0.22 | 0.0536
CYP3A43 (cytochrome P450 family 3 subfamily A member 43) | 1 | 0.15 | 0.28 | 0.355 | 0.0375
GIPC2 (GIPC PDZ domain containing family member 2) | 1 | 0.0895 | 0.178 | 0.427 | 0.025
BCO1 (beta-carotene oxygenase 1) | 1 | 0.0925 | 0.123 | 0.271 | 0.021
PNMA3 (PNMA family member 3) | 1 | 0.0549 | 0.205 | 0.34 | 0.00876
CCAR1 (cell division cycle and apoptosis regulator 1) | 1 | 0.077 | 0.109 | 0.256 | 0.00825
GUCY1B2 (guanylate cyclase 1 soluble subunit beta 2 (pseudogene)) | 1 | 0.116 | 0.157 | 0.344 | 0.0217
CLU (clusterin) | 1 | 0.0863 | 0.355 | 0.387 | 0.0147
PLIN1 (perilipin 1) | 1 | 0.0755 | 0.222 | 0.163 | 0.0281
PDZK1IP1 (PDZK1 interacting protein 1) | 1 | 0.139 | 0.286 | 0.349 | 0.0187
C1orf115 (chromosome 1 open reading frame 115) | 1 | 0.067 | 0.104 | 0.171 | 0.023
PRR12 (proline rich 12) | 1 | 0.07 | 0.17 | 0.248 | 0.0349
ERC1 (ELKS/RAB6-interacting/CAST family member 1) | 1 | 0.0641 | 0.635 | 0.264 | 0.0312
PARD6B (par-6 family cell polarity regulator beta) | 1 | 0.0959 | 0.304 | 0.269 | 0.0245

In a second layout: entries from further up.
GIPC2 (GIPC PDZ domain containing family member 2)
- BNIP3L mRNA, set 1: 0.0895
- NDRG1 mRNA, set 1: 0.178
- BNIP3 mRNA, set 1: 0.427
- ALDOC mRNA, set 1: 0.025

BCO1 (beta-carotene oxygenase 1)
- BNIP3L mRNA, set 1: 0.0925
- NDRG1 mRNA, set 1: 0.123
- BNIP3 mRNA, set 1: 0.271
- ALDOC mRNA, set 1: 0.021

PNMA3 (PNMA family member 3)
- BNIP3L mRNA, set 1: 0.0549
- NDRG1 mRNA, set 1: 0.205
- BNIP3 mRNA, set 1: 0.34
- ALDOC mRNA, set 1: 0.00876

CCAR1 (cell division cycle and apoptosis regulator 1)
- BNIP3L mRNA, set 1: 0.077
- NDRG1 mRNA, set 1: 0.109
- BNIP3 mRNA, set 1: 0.256
- ALDOC mRNA, set 1: 0.00825

GUCY1B2 (guanylate cyclase 1 soluble subunit beta 2 (pseudogene))
- BNIP3L mRNA, set 1: 0.116
- NDRG1 mRNA, set 1: 0.157
- BNIP3 mRNA, set 1: 0.344
- ALDOC mRNA, set 1: 0.0217

CLU (clusterin)
- BNIP3L mRNA, set 1: 0.0863
- NDRG1 mRNA, set 1: 0.355
- BNIP3 mRNA, set 1: 0.387
- ALDOC mRNA, set 1: 0.0147

PLIN1 (perilipin 1)
- BNIP3L mRNA, set 1: 0.0755
- NDRG1 mRNA, set 1: 0.222
- BNIP3 mRNA, set 1: 0.163
- ALDOC mRNA, set 1: 0.0281

PDZK1IP1 (PDZK1 interacting protein 1)
- BNIP3L mRNA, set 1: 0.139
- NDRG1 mRNA, set 1: 0.286
- BNIP3 mRNA, set 1: 0.349
- ALDOC mRNA, set 1: 0.0187
